Reference: patent publication US9145424B2, “Treatment of amyotrophic lateral sclerosis” (Northwestern University, priority 2008, dated 2015)

System: PC12 cells that express mutant G93A SOD1
Test: Mutant SOD1-induced cytotoxicity protection assay
Procedure: This idea was tested by examining the sensitivity of PC12 cells to SOD1 aggregates in the presence and absence of proteasome inhibitor MG132. PC12 cells expressing no SOD1, wild type SOD1, G85R SOD1 or G93A SOD1 were grown with or without MG132 (FIG. 1).
PC12 cells expressing G93A SOD1 were treated with 100 nM MG132 with or without co-treatment with geldanamycin or radicicol.

For `Nc1nc2ccc(OC(F)(F)F)cc2s1` [riluzole, Riluzole, reference compound], the “activity in the cytotoxicity protection assay, in words” value was “negative”.
